Construct, isoform or probe ends are uncertain for at least one entry. For part of these data: No signal at the amounts used counts as a negative. For part of these data: At least one result comes from cells or an extract, where the contact may be indirect. For part of these data: Protein sequences can lack the tags named with them.
Columns and labels:
[1] = target: POU2F2 (endogenous, Hep1-6 nuclear extract) (Mus musculus (Hep1-6)) (UniProt Q00196); assay: EMSA, supershift; conditions: anti-POU2F2 supershift, abolished by unlabeled probe; LightShift Chemiluminescent EMSA Kit; antibody preincubated with nuclear extract on ice 10 min before probe; pH and binding temperature not given; protein in an extract; label: 3' biotin
[2] = target: POU2F2 (endogenous, Huh7 nuclear extract) (Homo sapiens (Huh7)) (UniProt P09086); assay: EMSA, supershift; conditions: anti-POU2F2 supershift, abolished by unlabeled probe; LightShift Chemiluminescent EMSA Kit; antibody preincubated with nuclear extract on ice 10 min before probe; pH and binding temperature not given; protein in an extract; label: 3' biotin
[3] = target: POU2F2 (endogenous, Huh7 nuclear extract) (Homo sapiens (Huh7)) (UniProt P09086); assay: EMSA; conditions: mutant probe as labeled probe; LightShift Chemiluminescent EMSA Kit; antibody preincubated with nuclear extract on ice 10 min before probe; pH and binding temperature not given; protein in an extract; label: 3' biotin as probe
[4] = target: POU2F2 (endogenous, Huh7 nuclear extract) (Homo sapiens (Huh7)) (UniProt P09086); assay: competition with a labelled probe; conditions: mutant as competitor against N1; LightShift Chemiluminescent EMSA Kit; antibody preincubated with nuclear extract on ice 10 min before probe; pH and binding temperature not given; protein in an extract; label: 3' biotin as probe
[5] = target: POU2F2 (endogenous, Hep1-6 nuclear extract) (Mus musculus (Hep1-6)) (UniProt Q00196); assay: EMSA; conditions: mutant probe as labeled probe; LightShift Chemiluminescent EMSA Kit; antibody preincubated with nuclear extract on ice 10 min before probe; pH and binding temperature not given; protein in an extract; label: 3' biotin as probe
[6] = target: POU2F2 (endogenous, Hep1-6 nuclear extract) (Mus musculus (Hep1-6)) (UniProt Q00196); assay: competition with a labelled probe; conditions: mutant as competitor against N3; LightShift Chemiluminescent EMSA Kit; antibody preincubated with nuclear extract on ice 10 min before probe; pH and binding temperature not given; protein in an extract; label: 3' biotin as probe
[7] = tested on: GST tag; assay: EMSA; conditions: LightShift Chemiluminescent EMSA Kit; antibody preincubated with nuclear extract on ice 10 min before probe; pH and binding temperature not given; recombinant protein; protein details: GST; label: 3' biotin
[8] = target: GST-p53 (Homo sapiens) (UniProt P04637); assay: EMSA, supershift; conditions: anti-p53 supershift, binding lost with increasing HIS-POU2F2 (Fig S5H); LightShift Chemiluminescent EMSA Kit; antibody preincubated with nuclear extract on ice 10 min before probe; pH and binding temperature not given; recombinant protein; residues 1-393; protein details: GST; label: 3' biotin
[9] = target: T1, HIS-POU2F2 (Homo sapiens) (UniProt P09086); assay: EMSA, supershift; conditions: anti-POU2F2 supershift, increasing HIS-POU2F2 displaces fixed GST-p53 (Fig S5H); LightShift Chemiluminescent EMSA Kit; antibody preincubated with nuclear extract on ice 10 min before probe; pH and binding temperature not given; recombinant protein; protein details: N-terminal His; label: 3' biotin
T1 sequence (looked up, limits assumed): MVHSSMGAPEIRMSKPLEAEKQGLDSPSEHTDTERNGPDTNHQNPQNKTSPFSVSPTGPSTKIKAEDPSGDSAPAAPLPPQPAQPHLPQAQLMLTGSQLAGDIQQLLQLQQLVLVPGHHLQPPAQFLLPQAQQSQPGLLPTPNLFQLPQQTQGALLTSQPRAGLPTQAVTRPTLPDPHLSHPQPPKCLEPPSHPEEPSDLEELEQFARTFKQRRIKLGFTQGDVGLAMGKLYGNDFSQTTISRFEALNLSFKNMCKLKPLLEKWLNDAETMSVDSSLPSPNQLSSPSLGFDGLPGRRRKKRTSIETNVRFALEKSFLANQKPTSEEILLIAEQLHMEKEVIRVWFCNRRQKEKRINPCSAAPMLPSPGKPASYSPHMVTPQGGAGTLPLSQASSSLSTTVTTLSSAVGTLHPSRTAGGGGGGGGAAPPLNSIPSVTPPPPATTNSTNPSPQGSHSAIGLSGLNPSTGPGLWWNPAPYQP

Sequences of proteins named here, by UniProt entry; tags and fusion partners are left off. A change or cut given only in a name is not applied to a line headed by its entry.
UniProt Q00196: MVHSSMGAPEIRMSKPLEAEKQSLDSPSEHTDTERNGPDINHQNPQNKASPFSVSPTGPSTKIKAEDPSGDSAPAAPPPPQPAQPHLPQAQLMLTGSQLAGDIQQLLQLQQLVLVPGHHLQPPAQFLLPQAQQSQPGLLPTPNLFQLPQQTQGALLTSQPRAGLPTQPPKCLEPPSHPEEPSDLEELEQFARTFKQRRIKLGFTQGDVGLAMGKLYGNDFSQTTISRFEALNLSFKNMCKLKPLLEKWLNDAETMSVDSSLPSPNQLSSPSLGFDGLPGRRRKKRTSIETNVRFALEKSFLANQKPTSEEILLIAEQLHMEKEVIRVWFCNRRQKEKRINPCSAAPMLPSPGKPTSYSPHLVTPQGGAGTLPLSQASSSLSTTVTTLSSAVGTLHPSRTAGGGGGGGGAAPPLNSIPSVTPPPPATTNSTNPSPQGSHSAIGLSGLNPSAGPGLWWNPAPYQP

## GGGTCACCTTACAGCTTC (double strand) [mouse Nanog -198 to -181 probe]
[1]
  binding result: binds

## TCCCCACCTAGTCTGGGTTACTC (double strand) [human NANOG -150 to -128 probe]
[2]
  binding result: binds

## TCCCAATTGAGTCTGGGTTACTC (double strand) [human NANOG mutant probe]
[3]
  binding result: no binding
[4]
  binding result: no binding

## GGGTAATTGTACAGCTTC (double strand) [mouse Nanog mutant probe]
[5]
  binding result: no binding
[6]
  binding result: no binding

## GTTTTCTAGTTCCCCACCTAGTCTGGGTTACTC (double strand) [human NANOG site-p53/CACCT probe]
[7]
  binding result: no binding
[8]
  binding result: binds
[9]
  binding result: binds
